Test results from patent US20250144230A1 (Orum Therapeutics, Inc., priority 2021, published 2025).

Tests used:
[1] = Cysteine digestion, in vitro payload release
[2] = general procedure: solution-phase peptide synthesis; HATU, HOBT, DIEA

CNCCOCCc1ccc(NC(=O)NCc2ccc3c(c2)CN(C2CCC(=O)N(CN(C)S(=O)(=O)c4ccc(C(=O)NCCN5C(=O)C=CC5=O)cc4[N+](=O)[O-])C2=O)C3=O)cc1Cl.O=C(O)C(F)(F)F (stereo not shown) [Compound (XIX), 4-[({3-[5-({[(3-chloro-4-{2-[2-(methylamino)ethoxy]ethyl}phenyl)carbamoyl]amino}methyl)-1-oxo-3H-isoindol-2-yl]-2,6-dioxopiperidin-1-yl}methyl)(methyl)sulfamoyl]-N-[2-(2,5-dioxopyrrol-1-yl)ethyl]-3-nitrobenzamide; trifluoroacetic acid]
% Payload Released ([1]; 1 mM compound, 10 molar equivalents L-cysteine, PBS pH 7.4 + 20% DMA, 37° C., 24 hours): sole product | consumption of parent compound on cysteine treatment (HPLC) ([1]; 10 molar equivalents L-cysteine, 37° C., 24 hours): completely consumed | yield of desired payload released by cysteine (in words) ([1]; cysteine treatment): excellent yield

N-{[({[(1S)-1-({[({3-[5-({[(3-chloro-4-{2-[2-(methylamino)ethoxy]ethyl}phenyl)carbamoyl]amino}methyl)-1-oxo-3H-isoindol-2-yl]-2,6-dioxopiperidin-1-yl}methyl)carbamoyl]methyl}carbamoyl)-2-phenylethyl]carbamoyl}methyl)carbamoyl]methyl}
step yield ([2]; late stage modification step): 17%

[(2S)-2-(2-[2-[6-(2,5-dioxopyrrol-1-yl)hexanamido]acetamido]acetamido)-3-phenylpropanamido]acetic acid
step yield ([2]; late stage modification step): 68%

[(2S)-2-(2-[2-[(tert-butoxycarbonyl)amino]acetamido]acetamido)-3-phenylpropanamido]acetic acid
step yield ([2]; coupling step): 15%

[(2S)-2-[2-(2-aminoacetamido)acetamido]-3-phenylpropanamido]acetic acid hydrochloride
step yield ([2]; late stage modification step, hydrochloride): 93%
